Experimental data from PMC12579238.
Results are given in words; binding and its absence hold for the method and conditions named. In cells and extracts the contact can be indirect. Here binding means that the protein was enriched with, or labelled near, the bait; the list need not be complete. Each block holds one binder with its values, some of them ahead of it.

Target: T1, CLN7 (human (endogenous in SH-SY5Y)) (UniProt Q8NHS3)
T1 sequence: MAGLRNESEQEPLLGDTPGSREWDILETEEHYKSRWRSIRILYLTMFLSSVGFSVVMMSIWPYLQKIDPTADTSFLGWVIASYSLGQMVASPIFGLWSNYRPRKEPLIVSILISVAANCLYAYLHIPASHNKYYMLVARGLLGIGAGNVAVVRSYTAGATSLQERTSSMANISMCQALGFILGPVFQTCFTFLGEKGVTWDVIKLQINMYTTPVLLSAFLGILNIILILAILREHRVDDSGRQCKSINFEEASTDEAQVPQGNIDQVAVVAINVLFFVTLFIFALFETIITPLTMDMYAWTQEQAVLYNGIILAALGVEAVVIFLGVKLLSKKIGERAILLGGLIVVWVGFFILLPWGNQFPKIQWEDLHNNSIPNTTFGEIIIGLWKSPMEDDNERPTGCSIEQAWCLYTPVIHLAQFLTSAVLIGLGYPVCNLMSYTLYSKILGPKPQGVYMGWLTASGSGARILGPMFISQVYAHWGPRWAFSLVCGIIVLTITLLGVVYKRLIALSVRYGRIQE
Assay: affinity purification with mass spectrometry; endogenous CLN7 immunoprecipitated from 2.5 mg SH-SY5Y lysate with a polyclonal anti-CLN7 antibody raised against L9 (351-421aa, Proteintech) on G-sepharose beads; IgG as non-specific binding control; 4 independent replicates; cells under steady state culture conditions

binding: binds
B1: BRIX1 (protein, UniProt Q8TDN6 1-353)
chain: MAATKRKRRGGFAVQAKKPKRNEIDAEPPAKRHATAEEVEEEERDRIPGPVCKGKWKNKERILIFSSRGINFRTRHLMQDLRMLMPHSKADTKMDRKDKLFVINEVCEMKNCNKCIYFEAKKKQDLYMWLSNSPHGPSAKFLVQNIHTLAELKMTGNCLKGSRPLLSFDPAFDELPHYALLKELLIQIFSTPRYHPKSQPFVDHVFTFTILDNRIWFRNFQIIEEDAALVEIGPRFVLNLIKIFQGSFGGPTLYENPHYQSPNMHRRVIRSITAAKYREKQQVKDVQKLRKKEPKTLLPHDPTADVFVTPAEEKPIEIQWVKPEPKVDLKARKKRIYKRQRKMKQRMDSGKTK

binding: binds
B2: DARS2 (protein, UniProt Q6PI48 48-645)
chain: VVRTNTCGELRSSHLGQEVTLCGWIQYRRQNTFLVLRDFDGLVQVIIPQDESAASVKKILCEAPVESVVQVSGTVISRPAGQENPKMPTGEIEIKVKTAELLNACKKLPFEIKNFVKKTEALRLQYRYLDLRSFQMQYNLRLRSQMVMKMREYLCNLHGFVDIETPTLFKRTPGGAKEFLVPSREPGKFYSLPQSPQQFKQLLMVGGLDRYFQVARCYRDEGSRPDRQPEFTQIDIEMSFVDQTGIQSLIEGLLQYSWPNDKDPVVVPFPTMTFAEVLATYGTDKPDTRFGMKIIDISDVFRNTEIGFLQDALSKPHGTVKAICIPEGAKYLKRKDIESIRNFAADHFNQEILPVFLNANRNWNSPVANFIMESQRLELIRLMETQEEDVVLLTAGEHNKACSLLGKLRLECADLLETRGVVLRDPTLFSFLWVVDFPLFLPKEENPRELESAHHPFTAPHPSDIHLLYTEPKKARSQHYDLVLNGNEIGGGSIRIHNAELQRYILATLLKEDVKMLSHLLQALDYGAPPHGGIALGLDRLICLVTGSPSIRDVIAFPKSFRGHDLMSNTPDSVPPEELKPYHIRVSKPTDSKAERAH

binding: binds
B3: PSPC1 (protein, UniProt Q8WXF1 1-523)
chain: MMLRGNLKQVRIEKNPARLRALESAVGESEPAAAAAMALALAGEPAPPAPAPPEDHPDEEMGFTIDIKSFLKPGEKTYTQRCRLFVGNLPTDITEEDFKRLFERYGEPSEVFINRDRGFGFIRLESRTLAEIAKAELDGTILKSRPLRIRFATHGAALTVKNLSPVVSNELLEQAFSQFGPVEKAVVVVDDRGRATGKGFVEFAAKPPARKALERCGDGAFLLTTTPRPVIVEPMEQFDDEDGLPEKLMQKTQQYHKEREQPPRFAQPGTFEFEYASRWKALDEMEKQQREQVDRNIREAKEKLEAEMEAARHEHQLMLMRQDLMRRQEELRRLEELRNQELQKRKQIQLRHEEEHRRREEEMIRHREQEELRRQQEGFKPNYMENREQEMRMGDMGPRGAINMGDAFSPAPAGNQGPPPMMGMNMNNRATIPGPPMGPGPAMGPEGAANMGTPMMPDNGAVHNDRFPQGPPSQMGSPMGSRTGSETPQAPMSGVGPVSGGPGGFGRGSQGGNFEGPNKRRRY

binding: binds
B4: DCAF7 (protein, UniProt P61962 1-342)
chain: MSLHGKRKEIYKYEAPWTVYAMNWSVRPDKRFRLALGSFVEEYNNKVQLVGLDEESSEFICRNTFDHPYPTTKLMWIPDTKGVYPDLLATSGDYLRVWRVGETETRLECLLNNNKNSDFCAPLTSFDWNEVDPYLLGTSSIDTTCTIWGLETGQVLGRVNLVSGHVKTQLIAHDKEVYDIAFSRAGGGRDMFASVGADGSVRMFDLRHLEHSTIIYEDPQHHPLLRLCWNKQDPNYLATMAMDGMEVVILDVRVPCTPVARLNNHRACVNGIAWAPHSSCHICTAADDHQALIWDIQQMPRAIEDPILAYTAEGEINNVQWASTQPDWIAICYNNCLEILRV

binding: binds
B5: THRAP3 (protein, UniProt Q9Y2W1 1-955)
chain: MSKTNKSKSGSRSSRSRSASRSRSRSFSKSRSRSRSLSRSRKRRLSSRSRSRSYSPAHNRERNHPRVYQNRDFRGHNRGYRRPYYFRGRNRGFYPWGQYNRGGYGNYRSNWQNYRQAYSPRRGRSRSRSPKRRSPSPRSRSHSRNSDKSSSDRSRRSSSSRSSSNHSRVESSKRKSAKEKKSSSKDSRPSQAAGDNQGDEAKEQTFSGGTSQDTKASESSKPWPDATYGTGSASRASAVSELSPRERSPALKSPLQSVVVRRRSPRPSPVPKPSPPLSSTSQMGSTLPSGAGYQSGTHQGQFDHGSGSLSPSKKSPVGKSPPSTGSTYGSSQKEESAASGGAAYTKRYLEEQKTENGKDKEQKQTNTDKEKIKEKGSFSDTGLGDGKMKSDSFAPKTDSEKPFRGSQSPKRYKLRDDFEKKMADFHKEEMDDQDKDKAKGRKESEFDDEPKFMSKVIGANKNQEEEKSGKWEGLVYAPPGKEKQRKTEELEEESFPERSKKEDRGKRSEGGHRGFVPEKNFRVTAYKAVQEKSSSPPPRKTSESRDKLGAKGDFPTGKSSFSITREAQVNVRMDSFDEDLARPSGLLAQERKLCRDLVHSNKKEQEFRSIFQHIQSAQSQRSPSELFAQHIVTIVHHVKEHHFGSSGMTLHERFTKYLKRGTEQEAAKNKKSPEIHRRIDISPSTFRKHGLAHDEMKSPREPGYKAEGKYKDDPVDLRLDIERRKKHKERDLKRGKSRESVDSRDSSHSRERSAEKTEKTHKGSKKQKKHRRARDRSRSSSSSSQSSHSYKAEEYTEETEEREESTTGFDKSRLGTKDFVGPSERGGGRARGTFQFRARGRGWGRGNYSGNNNNNSNNDFQKRNREEEWDPEYTPKSKKYYLHDDREGEGSDKWVSRGRGRGAFPRGRGRFMFRKSSTSPKWAHDKFSGEEGEIEDDESGTENREEKDNIQPTTE

binding: binds
B6: DDX27 (protein, UniProt Q96GQ7 1-765)
chain: MLADLGLIGTIGEDDEVPVEPESDSGDEEEEGPIVLGRRQKALGKNRSADFNPDFVFTEKEGTYDGSWALADVMSQLKKKRAATTLDEKIEKVRKKRKTEDKEAKSGKLEKEKEAKEGSEPKEQEDLQENDEEGSEDEASETDYSSADENILTKADTLKVKDRKKKKKKGQEAGGFFEDASQYDENLSFQDMNLSRPLLKAITAMGFKQPTPIQKACIPVGLLGKDICACAATGTGKTAAFALPVLERLIYKPRQAPVTRVLVLVPTRELGIQVHSVTRQLAQFCNITTCLAVGGLDVKSQEAALRAAPDILIATPGRLIDHLHNCPSFHLSSIEVLILDEADRMLDEYFEEQMKEIIRMCSHHRQTMLFSATMTDEVKDLASVSLKNPVRIFVNSNTDVAPFLRQEFIRIRPNREGDREAIVAALLTRTFTDHVMLFTQTKKQAHRMHILLGLMGLQVGELHGNLSQTQRLEALRRFKDEQIDILVATDVAARGLDIEGVKTVINFTMPNTIKHYVHRVGRTARAGRAGRSVSLVGEDERKMLKEIVKAAKAPVKARILPQDVILKFRDKIEKMEKDVYAVLQLEAEEKEMQQSEAQINTAKRLLEKGKEAVVQEPERSWFQTKEERKKEKIAKALQEFDLALRGKKKRKKFMKDAKKKGEMTAEERSQFEILKAQMFAERLAKRNRRAKRARAMPEEEPVRGPAKKQKQGKKSVFDEELTNTSKKALKQYRAGPSFEERKQLGLPHQRRGGNFKSKSRYKRRK

binding: binds
B7: ADAR (protein, UniProt P55265 1-1226)
chain: MNPRQGYSLSGYYTHPFQGYEHRQLRYQQPGPGSSPSSFLLKQIEFLKGQLPEAPVIGKQTPSLPPSLPGLRPRFPVLLASSTRGRQVDIRGVPRGVHLRSQGLQRGFQHPSPRGRSLPQRGVDCLSSHFQELSIYQDQEQRILKFLEELGEGKATTAHDLSGKLGTPKKEINRVLYSLAKKGKLQKEAGTPPLWKIAVSTQAWNQHSGVVRPDGHSQGAPNSDPSLEPEDRNSTSVSEDLLEPFIAVSAQAWNQHSGVVRPDSHSQGSPNSDPGLEPEDSNSTSALEDPLEFLDMAEIKEKICDYLFNVSDSSALNLAKNIGLTKARDINAVLIDMERQGDVYRQGTTPPIWHLTDKKRERMQIKRNTNSVPETAPAAIPETKRNAEFLTCNIPTSNASNNMVTTEKVENGQEPVIKLENRQEARPEPARLKPPVHYNGPSKAGYVDFENGQWATDDIPDDLNSIRAAPGEFRAIMEMPSFYSHGLPRCSPYKKLTECQLKNPISGLLEYAQFASQTCEFNMIEQSGPPHEPRFKFQVVINGREFPPAEAGSKKVAKQDAAMKAMTILLEEAKAKDSGKSEESSHYSTEKESEKTAESQTPTPSATSFFSGKSPVTTLLECMHKLGNSCEFRLLSKEGPAHEPKFQYCVAVGAQTFPSVSAPSKKVAKQMAAEEAMKALHGEATNSMASDNQPEGMISESLDNLESMMPNKVRKIGELVRYLNTNPVGGLLEYARSHGFAAEFKLVDQSGPPHEPKFVYQAKVGGRWFPAVCAHSKKQGKQEAADAALRVLIGENEKAERMGFTEVTPVTGASLRRTMLLLSRSPEAQPKTLPLTGSTFHDQIAMLSHRCFNTLTNSFQPSLLGRKILAAIIMKKDSEDMGVVVSLGTGNRCVKGDSLSLKGETVNDCHAEIISRRGFIRFLYSELMKYNSQTAKDSIFEPAKGGEKLQIKKTVSFHLYISTAPCGDGALFDKSCSDRAMESTESRHYPVFENPKQGKLRTKVENGEGTIPVESSDIVPTWDGIRLGERLRTMSCSDKILRWNVLGLQGALLTHFLQPIYLKSVTLGYLFSQGHLTRAICCRVTRDGSAFEDGLRHPFIVNHPKVGRVSIYDSKRQSGKTKETSVNWCLADGYDLEILDGTRGTVDGPRNELSRVSKKNIFLLFKKLCSFRYRRDLLRLSYGEAKKAARDYETAKNYFKKGLKDMGYGNWISKPQEEKNFYLCPV

binding: binds
B8: HSPA14 (protein, UniProt Q0VDF9 1-509)
chain: MAAIGVHLGCTSACVAVYKDGRAGVVANDAGDRVTPAVVAYSENEEIVGLAAKQSRIRNISNTVMKVKQILGRSSSDPQAQKYIAESKCLVIEKNGKLRYEIDTGEETKFVNPEDVARLIFSKMKETAHSVLGSDANDVVITVPFDFGEKQKNALGEAARAAGFNVLRLIHEPSAALLAYGIGQDSPTGKSNILVFKLGGTSLSLSVMEVNSGIYRVLSTNTDDNIGGAHFTETLAQYLASEFQRSFKHDVRGNARAMMKLTNSAEVAKHSLSTLGSANCFLDSLYEGQDFDCNVSRARFELLCSPLFNKCIEAIRGLLDQNGFTADDINKVVLCGGSSRIPKLQQLIKDLFPAVELLNSIPPDEVIPIGAAIEAGILIGKENLLVEDSLMIECSARDILVKGVDESGASRFTVLFPSGTPLPARRQHTLQAPGSISSVCLELYESDGKNSAKEETKFAQVVLQDLDKKENGLRDILAVLTMKRDGSLHVTCTDQETGKCEAISIEIAS
